Laboratory results: patent US7135481B2, “Naphthalimide compositions and uses thereof” (ChemGenex Pharmaceuticals, Inc., priority 2000, dated 2006)
The name of at least one read-out is uncertain.

Tested on: RIF-1 murine fibrosarcoma
Test: Example 2: RIF-1 tumor growth delay (TVQT), amonafide alone and with other chemotherapeutics
Settings: 50 mg/Kg IP, single agent, mean ± SE

In the case of `CN(C)CCN1C(=O)c2cccc3cc(N)cc(c23)C1=O` [Amonafide, 5-amino-2-[(dimethylamine)ethyl]-1H-benz[de-]isoquinoline-1,3-(2H)-dione], the TVQT (listed as Amonafide-NCI/DMSO) is reported as 9.7 ± 0.6 days, the TVQT (listed as Amonafide-Penta/DMSO) is reported as 9.3 ± 0.3 days and the TVQT (listed as amonafide-NCI) is reported as 9.7 days. The TVQT (listed as amonafide-Penta) was 9.3 days.
